Record: PubChem BioAssay AID652272 (Drosophila RNAi Screening Center, 2013)
Aim: 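Genes whose knock-down decreases or increases Hedgehog reporter output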 (primary screen). Cells: Drosophila clone 8 (Cl8) cells. Reagents: long dsRNA against Drosophila genes. Measured: 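Plate reader light from a firefly reporter under a ptc promoter fragment that responds to Hedgehog, with Renilla light as transfection reference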. Reading the numbers: firefly Hh reporter signal: higher = more ptc reporter light; Renilla reference signal: higher = more Renilla control light. Active means: 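Hit when the z-score averaged over two replicates is under -2 or over +3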. Calls: active = hit: reporter lowered or raised; inactive = not a hit.
In all, the deposit lists about 21,000 reagents; this is an unselected part of those with a known target gene and a result. Of all reagents, 503 (2.4%) were called active. 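Raw plate light values, not normalised; calls rest on replicate z-scores that were not deposited; hits include reporter decreases as well as increases.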 Entries without a mark were called inactive. A plus sign joins genes that one reagent is predicted to hit. The record does not give: the amount of reagent, the time to read-out.

no.	predicted target	DRSC id	firefly Hh reporter signal, replicate 1	firefly Hh reporter signal, replicate 2	firefly Hh reporter signal, replicate 3	Renilla reference signal, replicate 1	Renilla reference signal, replicate 2
1	wls	DRSC10605	80627	46104		2772	1968
2	FER	DRSC12735	3.66e5			8136	
3	FER	DRSC16673	68689	1.13e5		2307	3060
4	Brd7-9	DRSC03017	77752	81954		4072	4059
5	CG11836	DRSC14396	1.08e5	67613		3843	2365
6	CG34187 (retired record) + Trpm	DRSC05543	2.31e5	3.49e5		5600	15895
7	nonA	DRSC20357	63084	3.12e5		2217	13222
8	CG12990	DRSC19510	90404	2.39e5		3266	8131
9	side-II	DRSC01427	1.43e5	3.02e5		4544	14725
10	side-II	DRSC01429	1.09e5	1.96e5		3540	9947
11	side-II	DRSC01913	1.22e5	89564		3523	7137
12	side-II	DRSC01932	1.50e5	6.11e5	83194	4028	34346
13	side-II	DRSC02480	2.00e5	93785		5105	8790
14	Dic3	DRSC06058	99668	66112		2432	5898
15	SCCRO	DRSC10844	88472			2887	3457
16	CG34176	DRSC00435	1.20e5	79972		3474	6888
17	CG8298	DRSC07138	81286	46786		1706	3921
18	CG31788	DRSC01630	1.17e5	2.29e5		1809	11765
19	CG3097	DRSC18275	93877	2.09e5		3363	7306
20	Slc25A46b	DRSC02888	90067	62592		2418	4897
21	Alp8	DRSC04353	1.85e5	71433		4091	5593
22	Hipk	DRSC07885	65744	1.00e5		2456	5257
23	Hipk	DRSC08507	1.11e5	58669		4994	2524

2 entries from above, sorted by “Renilla reference signal, replicate 1”, low to high:
predicted target	DRSC id	firefly Hh reporter signal, replicate 1	firefly Hh reporter signal, replicate 2	firefly Hh reporter signal, replicate 3	Renilla reference signal, replicate 1	Renilla reference signal, replicate 2
wls	DRSC10605	80627	46104		2772	1968
FER	DRSC12735	3.66e5			8136	
